Results from the supplement of paper PMC3334620.
Whole data set: some 33,000 sequences, median “E-score (-0.5 to 0.5)” near -0.0034, cut for the highest 2% near 0.25. The list shows a part of the results.

These sequences were tested against T1, Yap3 (UniProt P38749) (assay: PBM E-score (8-mer binding enrichment) (E-score (-0.5 to 0.5)); higher = stronger / more preferred TF binding). Settings: protein concentration: 100 nM; construct: GST-full length.
T1 sequence: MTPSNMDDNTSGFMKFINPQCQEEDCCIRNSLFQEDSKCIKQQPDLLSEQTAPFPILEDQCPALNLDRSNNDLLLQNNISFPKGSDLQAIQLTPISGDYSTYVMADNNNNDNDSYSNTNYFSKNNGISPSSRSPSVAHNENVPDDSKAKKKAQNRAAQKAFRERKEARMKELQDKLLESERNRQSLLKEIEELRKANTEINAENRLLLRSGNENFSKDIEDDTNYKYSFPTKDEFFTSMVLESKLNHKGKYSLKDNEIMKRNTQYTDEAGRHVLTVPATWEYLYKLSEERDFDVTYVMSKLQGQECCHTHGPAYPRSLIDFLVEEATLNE
Method in brief: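 Universal all-10-mer Agilent arrays, double-stranded by primer extension on fresh or once-stripped slides, were probed with about 100-200 nM GST-tagged yeast transcription factors made by PURExpress. Fluorescent anti-GST detected bound protein, and masliner normalised the scans. E-scores from the Universal PBM Analysis Suite were given to each ungapped eight-base word pooled with its reverse complement.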

Sequence	PBM E-score
GTCGTCAA	0.0673
CGATTGGA	-0.0117
GAATATAC	0.181
AATCTCGT	0.0764
CCTCACAA	-0.0501
TAAAAATA	0.26
ATGAAGTA	0.101
AGTTCAGC	-0.221
ACTATAAA	0.237
GGGCACTA	-0.128
ATATCTTG	0.085
AATCGACG	-0.0671
AACAACAG	-0.0946
CAAGGACA	0.0322
GCATGGAA	0.06
AATGTATA	0.232
CAGCGTTC	-0.113
AGCGTCTA	-0.219
GTCCGTCA	0.0134
ACACCGAA	0.0282
AGAAACCT	0.0913
ACGTGACA	-0.0599
ACTGGACA	-0.0546
GACCGAGC	-0.154
ACTACTCT	0.0451

Sequence	PBM E-score
CATGTACG	0.224
ACTCAATA	0.211
GAATCGAA	0.223
AAAATGGA	0.309
CAGTCAGC	-0.0873
CTTCAAAA	0.0514
ATAGTATA	0.103
AATCGTAC	0.142
AATAGGAC	0.223
GCTTTATA	0.0704
GACCGACA	0.00482
GCAATAAC	0.109
AGTGTCAC	-0.0511
AACACTAT	0.207
GGATGACC	-0.0617
CCGTGCAA	-0.113
AGAGTAAG	0.053
ATGAAACA	0.0614
AGCAGCAC	-0.185
TACAACTA	-0.028
GACCAGCC	-0.0967
CTGCTGAA	-0.115
AGGGGTCG	-0.224
CTGTCGTC	0.0563
CCATTGCG	-0.0651

Sequence	PBM E-score
CCCTATGA	-0.0708
CTCATTAA	0.0548
TCATTGGA	-0.00954
GAACCATA	0.176
CCTTGAAA	0.029
ATGCGGTG	-0.206
AAGGCACT	-0.182
TGAGACAA	0.0572
TGAGTACA	0.0906
ATAAGCAA	0.137
ATTGCACG	0.124
CTCCCTGC	-0.275
GAGGACGA	0.0728
ACACCTCG	0.0513
GCAGGAAA	0.146
TGATGAAA	0.0286
GTGCGAGA	0.0126
CGGTCGAG	-0.145
CTCTCTCC	-0.293
CTCAGTTA	-0.0635
CCGGTAGC	-0.198
AGTCTCTA	-0.0735
AATTAGTA	0.369
CGAAGAAC	0.0703
ATTATCTC	0.268

Sequence	PBM E-score
AGCTTATG	0.122
CAGTAGAG	-0.0676
CTGGCAAG	-0.0263
ATTGTTAC	0.288
AGAGCCGG	-0.399
CGGTTCGA	0.0689
TAAGGAAA	0.0361
AGGACGCG	-0.0853
CACGACCG	-0.187
AGCTCGCG	-0.00832
ACGCCGAG	-0.0717
GAGTCGGA	0.0114
GGTGCAAC	-0.138
ACAAGTTA	0.16
ACGTCTGC	-0.0931
AAAAGACG	0.151
GAAAGCCC	-0.161
ATGAAGAA	0.156
GCTCATAC	-0.144
CCAGTATA	0.033
ATCCATAG	-0.0876
CCTTAAAA	-0.0934
AGTCTATG	-0.0538
TATGACGA	0.0487
CTGCGGTC	-0.174

Sequence	PBM E-score
ATCAAGCA	0.0599
AGTTGTGC	0.0195
CCATCGGG	-0.167
AGGTGCAG	-0.123
CCGATTCC	0.00421
GGCTGGTA	-0.146
GAATTCTC	0.0826
AGAGCCCA	-0.112
GATCCACC	-0.0204
AACGTGGT	-0.0828
ATACTGGC	-0.0796
AACGGTTG	0.0717
CTACTCAC	0.0272
ATTCGGGC	-0.117
ACTCCACA	-0.00284
AAAGTGAA	0.251
ACGAATTA	0.11
AGACGGAA	0.0609
TCCCTAAA	-0.016
GAGTATAA	0.178
ACCAAAGG	-0.0982
CGTTTTAA	0.126
GCGCGGAC	-0.0123
GTAATTTA	0.238
ACCTGAAT	0.199

Nothing new here: entries from further up.
Sequence	PBM E-score
AAAGTGAA	0.251
ACGAATTA	0.11
AGACGGAA	0.0609
TCCCTAAA	-0.016
GAGTATAA	0.178
ACCAAAGG	-0.0982

Exported bar-delimited: part of the list above
Sequence | PBM E-score
CCATCGGG | -0.167
TCCCTAAA | -0.016

(listing goes on)

Sequence	PBM E-score
CCCTGGTC	-0.323
CCCAATGC	-0.139
ACATTTTA	0.259
GCGTTCGA	0.0819
CGGATGGC	-0.0745
CTAGATTC	-0.0068
ATCGAACA	-0.101
CTAACTCA	-0.0595
CGGGCGGC	-0.0509
GCCAGAGC	-0.239
CCCGCCAA	-0.221
GGCGCAAA	0.0181
AGCCCAAA	0.138
AAACTCAA	0.163
CGAAGCGA	-0.0743
ATGTTTCC	0.0626
AGAGGGAC	-0.24
CGTGGGTC	-0.122
ACAGCAGT	-0.0583
CCTGGTGA	-0.0281
AAGTGACT	-0.00776
AACCCGAC	0.0906
CAATCTCC	0.0156
